In the supplement of paper PMC7661543:
The effect of the compound repeats well; differences between the knockouts mostly do not.

Test system: BT-20
Test: relative cell number vs DMSO control (72 h) (% of DMSO); higher = less growth inhibition (more cells)
Method: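 QMAP-Seq: a pool of 5 breast cancer cell lines (ZR-75-1, SKBR3, HCC-38, MDA-MB-231, BT-20), each carrying 12 doxycycline-inducible Cas9 sgRNA perturbations (11 knockouts plus non-targeting sgNT), was treated with compounds for 72 h at four 10-fold doses (10 nM-10 uM or 1 nM-1 uM range). Barcodes were amplified and sequenced, and cell number was interpolated from 293T spike-in standard curves. The result is expressed as % of the median of DMSO wells. Two biological replicates.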

O=C(O)CC[C@H]1CC[C@@](c2cc(F)ccc2F)(S(=O)(=O)c2ccc(Cl)cc2)CC1 [MK0752]
Conditions	relative cell number
sgRNA knockout: sgATF3, 10 nM	140
sgRNA knockout: sgATF3, 100 nM	108
sgRNA knockout: sgATF3, 1000 nM	106
sgRNA knockout: sgATF3, 10000 nM	133
sgRNA knockout: sgATF4, 10 nM	153
sgRNA knockout: sgATF4, 100 nM	120
sgRNA knockout: sgATF4, 1000 nM	125
sgRNA knockout: sgATF4, 10000 nM	134
sgRNA knockout: sgATF6, 10 nM	118
sgRNA knockout: sgATF6, 100 nM	110
sgRNA knockout: sgATF6, 1000 nM	121
sgRNA knockout: sgATF6, 10000 nM	145
sgRNA knockout: sgATG7, 10 nM	140
sgRNA knockout: sgATG7, 100 nM	123
sgRNA knockout: sgATG7, 1000 nM	132
sgRNA knockout: sgATG7, 10000 nM	139
sgRNA knockout: sgERN1, 10 nM	125
sgRNA knockout: sgERN1, 100 nM	107
sgRNA knockout: sgERN1, 1000 nM	120
sgRNA knockout: sgERN1, 10000 nM	139
sgRNA knockout: sgHSF1, 10 nM	120
sgRNA knockout: sgHSF1, 100 nM	105
sgRNA knockout: sgHSF1, 1000 nM	121
sgRNA knockout: sgHSF1, 10000 nM	125
sgRNA knockout: sgHSF2, 10 nM	135
sgRNA knockout: sgHSF2, 100 nM	110
sgRNA knockout: sgHSF2, 1000 nM	129
sgRNA knockout: sgHSF2, 10000 nM	137
sgRNA knockout: sgKEAP1, 10 nM	125
sgRNA knockout: sgKEAP1, 100 nM	108.8
sgRNA knockout: sgKEAP1, 1000 nM	107
sgRNA knockout: sgKEAP1, 10000 nM	117
sgRNA knockout: sgNFE2L2, 10 nM	162
sgRNA knockout: sgNFE2L2, 100 nM	132
sgRNA knockout: sgNFE2L2, 1000 nM	157
sgRNA knockout: sgNFE2L2, 10000 nM	145.9
sgRNA knockout: sgSLC35F2, 10 nM	158
sgRNA knockout: sgSLC35F2, 100 nM	116
sgRNA knockout: sgSLC35F2, 1000 nM	128
sgRNA knockout: sgSLC35F2, 10000 nM	134
sgRNA knockout: sgXBP1, 10 nM	144
sgRNA knockout: sgXBP1, 100 nM	123
sgRNA knockout: sgXBP1, 1000 nM	132
sgRNA knockout: sgXBP1, 10000 nM	143

COc1cc(CCc2cc(NC(=O)c3ccc(N4CC(C)NC(C)C4)cc3)n[nH]2)cc(OC)c1 (configuration not stated) [AZD4547]
Conditions	relative cell number
sgRNA knockout: sgATF3, 10 nM	81.7
sgRNA knockout: sgATF3, 100 nM	85.8
sgRNA knockout: sgATF3, 1000 nM	96.6
sgRNA knockout: sgATF3, 10000 nM	60.5
sgRNA knockout: sgATF4, 10 nM	84.538
sgRNA knockout: sgATF4, 100 nM	95.1
sgRNA knockout: sgATF4, 1000 nM	106
sgRNA knockout: sgATF4, 10000 nM	46.2
sgRNA knockout: sgATF6, 10 nM	75.65
sgRNA knockout: sgATF6, 100 nM	99.1
sgRNA knockout: sgATF6, 1000 nM	98.8
sgRNA knockout: sgATF6, 10000 nM	60.9
sgRNA knockout: sgATG7, 10 nM	78.7
sgRNA knockout: sgATG7, 100 nM	91.8
sgRNA knockout: sgATG7, 1000 nM	97.1
sgRNA knockout: sgATG7, 10000 nM	53.9
sgRNA knockout: sgERN1, 10 nM	79.8
sgRNA knockout: sgERN1, 100 nM	79.8
sgRNA knockout: sgERN1, 1000 nM	92.3
sgRNA knockout: sgERN1, 10000 nM	52.8
sgRNA knockout: sgHSF1, 10 nM	80.4
sgRNA knockout: sgHSF1, 100 nM	83
sgRNA knockout: sgHSF1, 1000 nM	89.7
sgRNA knockout: sgHSF1, 10000 nM	55.8
sgRNA knockout: sgHSF2, 10 nM	90.4
sgRNA knockout: sgHSF2, 100 nM	80.8
sgRNA knockout: sgHSF2, 1000 nM	92.7
sgRNA knockout: sgHSF2, 10000 nM	74.6
sgRNA knockout: sgKEAP1, 10 nM	78.9
sgRNA knockout: sgKEAP1, 100 nM	85.9
sgRNA knockout: sgKEAP1, 1000 nM	90.1
sgRNA knockout: sgKEAP1, 10000 nM	60.4
sgRNA knockout: sgNFE2L2, 10 nM	77.6
sgRNA knockout: sgNFE2L2, 100 nM	85.8
sgRNA knockout: sgNFE2L2, 1000 nM	101
sgRNA knockout: sgNFE2L2, 10000 nM	47.1
sgRNA knockout: sgSLC35F2, 10 nM	88.4
sgRNA knockout: sgSLC35F2, 100 nM	92.4
sgRNA knockout: sgSLC35F2, 1000 nM	101
sgRNA knockout: sgSLC35F2, 10000 nM	55
sgRNA knockout: sgXBP1, 10 nM	84.7
sgRNA knockout: sgXBP1, 100 nM	76.5
sgRNA knockout: sgXBP1, 1000 nM	103
sgRNA knockout: sgXBP1, 10000 nM	71.6

CC(C)n1c(/C=C/C(O)CC(O)CC(=O)O)c(-c2ccc(F)cc2)c2ccccc21 (configuration not stated) [Fluvastatin]
Conditions	relative cell number
sgRNA knockout: sgATF3, 10 nM	98.5
sgRNA knockout: sgATF3, 100 nM	97.5
sgRNA knockout: sgATF3, 1000 nM	76.1
sgRNA knockout: sgATF3, 10000 nM	70.3
sgRNA knockout: sgATF4, 10 nM	102
sgRNA knockout: sgATF4, 100 nM	98.7
sgRNA knockout: sgATF4, 1000 nM	97.1
sgRNA knockout: sgATF4, 10000 nM	69.3
sgRNA knockout: sgATF6, 10 nM	81.3
sgRNA knockout: sgATF6, 100 nM	99.8
sgRNA knockout: sgATF6, 1000 nM	92.1
sgRNA knockout: sgATF6, 10000 nM	65.5
sgRNA knockout: sgATG7, 10 nM	97.1
sgRNA knockout: sgATG7, 100 nM	98.8
sgRNA knockout: sgATG7, 1000 nM	85.7
sgRNA knockout: sgATG7, 10000 nM	66.6
sgRNA knockout: sgERN1, 10 nM	94.1
sgRNA knockout: sgERN1, 100 nM	114
sgRNA knockout: sgERN1, 1000 nM	97.6
sgRNA knockout: sgERN1, 10000 nM	68.4
sgRNA knockout: sgHSF1, 10 nM	98.7
sgRNA knockout: sgHSF1, 100 nM	92.2
sgRNA knockout: sgHSF1, 1000 nM	89.6
sgRNA knockout: sgHSF1, 10000 nM	70.9
sgRNA knockout: sgHSF2, 10 nM	83.5
sgRNA knockout: sgHSF2, 100 nM	89.3
sgRNA knockout: sgHSF2, 1000 nM	83.2
sgRNA knockout: sgHSF2, 10000 nM	71.3
sgRNA knockout: sgKEAP1, 10 nM	108
sgRNA knockout: sgKEAP1, 100 nM	99.2
sgRNA knockout: sgKEAP1, 1000 nM	94
sgRNA knockout: sgKEAP1, 10000 nM	67.4
sgRNA knockout: sgNFE2L2, 10 nM	96.8
sgRNA knockout: sgNFE2L2, 100 nM	94
sgRNA knockout: sgNFE2L2, 1000 nM	90.7
sgRNA knockout: sgNFE2L2, 10000 nM	75.5
sgRNA knockout: sgSLC35F2, 10 nM	100
sgRNA knockout: sgSLC35F2, 100 nM	105
sgRNA knockout: sgSLC35F2, 1000 nM	75.96
sgRNA knockout: sgSLC35F2, 10000 nM	73
sgRNA knockout: sgXBP1, 10 nM	87.2
sgRNA knockout: sgXBP1, 100 nM	108
sgRNA knockout: sgXBP1, 1000 nM	81.9
sgRNA knockout: sgXBP1, 10000 nM	83.3
